Assay results reported in PubChem BioAssay AID485314 (National Center for Advancing Translational Sciences (NCATS), 2010).
Hit rate of the full screen: of about 340,000 compounds, about 4,500 (1.3%) were called active. This list was built around the results that the source calls inconclusive (neither active nor inactive); the mix of calls is not that of the screen. Calls follow the shape of the dose curve; as a rule, active = well fitted inhibition curve with a large enough effect; inconclusive = small, poorly fitted or top-dose-only effect, or another doubt; inactive = no such curve, though single readings can be large or run the other way. Where the call is inconclusive, the potency comes from a doubtful curve fit.

Molecular target: DNA polymerase beta (Homo sapiens) (UniProt P06746)
Test: qHTS Assay for Inhibitors of DNA Polymerase Beta
Conditions: Pol beta primer extension/strand displacement, fluorescence kinetic; activity change, negative = inhibition: at 114 µM (top of the series)
Method in brief: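 Curves were derived by four-parameter Hill fits of normalized qHTS data. The kinetic fluorescent primer-extension read was taken at 0 and 10 min after 50 nM substrate, following a 15 min room-temperature preincubation of 10 nM enzyme with compounds.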
% is scaled to controls: 0 for no effect and ±100 for the full control effect; potency is read from the fitted curve at half-maximal effect.

Potency, inconclusive:
CC(C)NC(=O)CC1C(=O)N(Cc2ccccc2)C(C)c2nc3ccccc3n21 (stereo unspecified) 100 µM [inhibitor, single point]
COc1cccc(NC(=O)CN(C)CC(=O)Nc2ccc(Br)cc2)c1 0.891 µM [inhibitor, full curve, poor fit]
Cc1c(CCOC(=O)c2cccc([N+](=O)[O-])c2)sc[n+]1CC(=O)c1ccccc1 3.16 µM [inhibitor, partial curve]
O=C(Cc1cccs1)Nc1cccc(-c2nc3cc4ccccc4cc3[nH]2)c1 28.2 µM [inhibitor, single point]
N#Cc1c(-c2ccccc2)nc2n(-c3ccccc3)nc(C(=O)Nc3ccccc3)n2c1=O 89.1 µM [inhibitor, single point]
S=c1nc(C2COc3ccccc3O2)[nH][nH]1 (stereo unspecified) 56.2 µM [inhibitor, partial curve]
O=C(C[n+]1ccccc1)N/N=C/c1ccc(O)cc1 1.26 µM [inhibitor, full curve]
COc1cccc(/C=C2/C(=O)NN(c3ccc(C)c(C)c3)C2=O)c1 79.4 µM [inhibitor, single point]
CCOc1cc(Br)cc(/C=C2\SC(=Nc3ccccc3)NC2=O)c1O 0.141 µM [inhibitor, full curve, poor fit]
O=S(=O)(Nc1cccc(-c2cn3c(n2)SCC3)c1)c1ccccc1 89.1 µM [inhibitor, single point]
CCc1nc(CN2CCCC(C(=O)c3ccc4c5c(cccc35)CC4)C2)c(C)[nH]1 (stereo unspecified) 1 µM [inhibitor, full curve, poor fit]
COCCCNC(=S)NNC(=O)C(O)(c1ccccc1)c1ccccc1 100 µM [inhibitor, single point]
O=C(OCC1OC2OC3(CCCCC3)OC2C2OC3(CCCCC3)OC12)c1ccccc1 (stereo unspecified) 5.01 µM [inhibitor, single point]
Cc1cc(NC(=O)Nc2cccs2)no1 0.1 µM [inhibitor, full curve, poor fit]
COc1ccc(CNn2cnnc2)c(O)c1 89.1 µM [inhibitor, single point]
Cc1cccn2c(=O)c3cc(C(=O)N4COCC4(C)C)n(C)c3nc12 89.1 µM [inhibitor, single point]
CCc1nnc(NS(=O)(=O)c2ccc(N/C=C\C(=O)c3ccc(F)cc3)cc2)s1 63.1 µM [inhibitor, single point]
O=C(O)C(c1ccccc1)N1C(=O)/C(=C\c2ccc(-c3ccc(Br)cc3)o2)SC1=S (stereo unspecified) 50.1 µM [inhibitor, partial curve, poor fit]
CCN(CC)c1ccc(NC(=O)c2ccccc2Br)cc1S(=O)(=O)Nc1ccccc1OC 39.8 µM [inhibitor, single point]
O=C(NN=C1c2ccccc2-c2ccccc21)c1ccccc1 7.94 µM [inhibitor, full curve]
COc1cc(/C=C(\C#N)C(=O)Nc2cccc(C(=O)O)c2)ccc1OCc1ccc(C)cc1 79.4 µM [inhibitor, single point]
Cc1ccc(C)c(C(=O)CSc2nnnn2-c2cccnc2)c1 63.1 µM [inhibitor, single point]
CCNC(=S)N/N=C/c1cn(Cc2ccccc2F)c2ccccc12 39.8 µM [inhibitor, single point]
S=c1[nH]nc(-c2ccccc2)n1/N=C/c1ccc(-c2ccccc2Cl)o1 89.1 µM [inhibitor, single point]
Cc1nc2cc(NS(=O)(=O)c3ccccc3F)ccc2s1 112 µM [inhibitor, partial curve, poor fit]
O=C(N/N=C/c1ccc(O)cc1O)C(=O)N/N=C/c1ccc(O)cc1O 100 µM [inhibitor, single point]

Potency, active:
Nc1nc(SCC(=O)Nc2ccc(OC(F)(F)F)cc2)[nH]c(=O)c1NC(=O)c1ccc(Br)o1 39.8 µM
O=C(O)c1cccc(N2C(=O)C3C4C=CC(C4=C(c4ccccc4)c4ccccc4)C3C2=O)c1 (stereo unspecified) 50.1 µM
COc1cc(/C=C(\C#N)c2nc3ccc(C)cc3[nH]2)cc([N+](=O)[O-])c1O 44.7 µM
Cc1ccc(S(=O)(=O)N2CCCCC2)cc1C(=O)Nc1cccnc1 31.6 µM
CCN1/C(=C/c2ccc3cccc(C)c3[n+]2CC)Sc2ccccc21 50.1 µM

Activity change, negative = inhibition, inconclusive:
COc1ccc(-c2cc(-c3ccco3)[nH]c(=O)c2C#N)cc1 -131% [inhibitor]

Activity change, negative = inhibition, inactive:
COc1ccccc1NC(C)=O -4.77%
CCCN1CCN(C(=O)CN2C(=O)COc3ccc(S(=O)(=O)N(CC)CC)cc32)CC1 40.6%
COc1ccccc1NC(=O)Cn1nnc(-c2ccccc2NS(=O)(=O)c2ccccc2)n1 11.4%
Cc1nc2cc(N3CCCCC3)c(NC(=O)c3ccncc3)cc2c(=O)n1Cc1ccccc1 -0.294%
CCOC(=O)c1ccc(NC(=O)C(CC)Sc2nc3ncccc3[nH]2)cc1 (stereo unspecified) -1.46%
S=C(NCCc1ccccc1)Nc1ccc(Br)cc1 -0.334%
Cc1nc(-c2ccncc2)sc1C(=O)Nc1ccc(Cl)cc1 35.6%
CCCCNS(=O)(=O)c1ccc2nc(NC(=O)c3cccnc3)sc2c1 -18%
COc1cc2c(cc1NS(=O)(=O)c1cccc(C#N)c1)n(C)c(=O)n2C 4.59%
Oc1[nH]c(=S)sc1C=C1N=c2ccccc2=N1 16.2%
Nc1ccccc1Nc1ccc([N+](=O)[O-])cc1[N+](=O)[O-] 2.35%
O=C(CSc1nc2c(oc3ccccc32)c(=O)n1Cc1ccco1)Nc1cccc(Cl)c1 17.4%
COC(=O)CSc1cccc2c1C(=O)CC2c1ccccc1 (stereo unspecified) 14.9%
CC(C)N(C(=O)Nc1ccc2nccnc2c1)C(C)C -0.027%

Three records picked at random from the list so far, as already listed:
Activity change, negative = inhibition, inactive:
Nc1ccccc1Nc1ccc([N+](=O)[O-])cc1[N+](=O)[O-] 2.35%
COc1ccccc1NC(=O)Cn1nnc(-c2ccccc2NS(=O)(=O)c2ccccc2)n1 11.4%
CCOC(=O)c1ccc(NC(=O)C(CC)Sc2nc3ncccc3[nH]2)cc1 (stereo unspecified) -1.46%
